Measured values taken from paper PMC9513094.

Legend:
GFP-TRB1 (Arabidopsis) = assay: co-IP; GFP-Trap_A beads on plant lysate; 10 mM Tris-HCl pH 7.5, 150 mM NaCl, 0.5 mM EDTA, 0.5% Triton-X100; blots with anti-RFP and anti-GFP
nYFP-TRB1 (Arabidopsis) = assay: split reporter; split-YFP BiFC, nYFP and cYFP fusions co-expressed in N. benthamiana, imaged two days after infiltration

Row | binding (GFP-TRB1 (Arabidopsis)) | binding (nYFP-TRB1 (Arabidopsis)) | Binder
1 | binds | – | VAP27-1-RFP (protein, UniProt Q8VZ95 1-256) MSNIDLIGMSNRDLIGMSNSELLTVEPLDLQFPFELKKQISCSLYLTNKTDNNVAFKVKTTNPKKYCVRPNTGVVLPRSTCEVLVTMQAQKEAPSDMQCKDKFLLQGVIASPGVTAKEVTPEMFSKEAGHRVEETKLRVTYVAPPRPPSPVHEGSEEGSSPRASVSDNGHGSEFSFERFIVDNKAGHQENTSEARALITKLTEEKQSAIQLNNRLQRELDQLRRESKKSQSGGIPFMYVLLVGLIGLILGYIMKRT
2 | – | binds | cYFP-VAP27-1 (protein, UniProt Q8VZ95 1-256) MSNIDLIGMSNRDLIGMSNSELLTVEPLDLQFPFELKKQISCSLYLTNKTDNNVAFKVKTTNPKKYCVRPNTGVVLPRSTCEVLVTMQAQKEAPSDMQCKDKFLLQGVIASPGVTAKEVTPEMFSKEAGHRVEETKLRVTYVAPPRPPSPVHEGSEEGSSPRASVSDNGHGSEFSFERFIVDNKAGHQENTSEARALITKLTEEKQSAIQLNNRLQRELDQLRRESKKSQSGGIPFMYVLLVGLIGLILGYIMKRT

These are yes or no findings as the source states them, for the method shown. In cells and extracts the contact can be indirect. Binding can be weak; no strength is given. For some assays here: Sequences can lack the tags named with a protein.
